A unit is not stated for every read-out.
Legend:
[1] = Serum ethanolamine phospholipid levels in human cohorts (dementia severity, post-mortem pathology, age) by flow-injection MS/MS
[2] = Serum ethanolamine phospholipid ratios to PtdEt 16:0/18:0 (M01) in human cohorts
[3] = serum, females, post mortem SDAT
[4] = serum, females, post mortem control

Structure (SMILES): CCCCC/C=C\C/C=C\C/C=C\C/C=C\CCCC(=O)OC(COCCCCCCCCCCCCCCCCCC)COP(=O)(O)OCCN (centres unmarked) [Metabolite M12, Plasmanyl 18:0/20:4]
- Ratio of serum levels ([1]; AD, All to CN, Male): 0.793
- Ratio of serum levels ([1]; ADAS 5-19 to CN, Male): 0.831
- Ratio of serum levels ([1]; ADAS 20-39 to 5-19, Male): 0.942
- Ratio of serum levels ([1]; ADAS 20-39 to CN, Male): 0.783
- Ratio of serum levels ([1]; ADAS 40-70 to 5-19, Male): 0.826
- Ratio of serum levels ([1]; ADAS 40-70 to 20-39, Male): 0.877
- Ratio of serum levels ([1]; ADAS 40-70 to CN, Male): 0.686
- Serum level, Mean ([1]; Cognitive Normal, Female): 0.196
- Average serum level, Mean ([1]; Cognitive Normal, Male): 0.205
- Serum level, Mean ([1]; Post Mortem Ctl, Male): 0.094
- Serum level, Mean ([1]; Post Mortem SDAT Male): 0.084
- Ratio of serum levels ([1]; Post mortem SDAT vs Control, Male): 0.587
- Serum level, Mean ([1]; SDAT, ADAS 5-19, Female): 0.166
- Average serum level, Mean ([1]; SDAT, ADAS 5-19, Male): 0.170
- Serum level, Mean ([1]; SDAT, ADAS 20-39, Female): 0.152
- Average serum level, Mean ([1]; SDAT, ADAS 20-39, Male): 0.160
- Serum level, Mean ([1]; SDAT, ADAS 40-70, Female): 0.142
- Average serum level, Mean ([1]; SDAT, ADAS 40-70, Male): 0.141
- Serum level, Mean ([1]; SDAT_all, Female): 0.153
- Average serum level, Mean ([1]; SDAT_all, Male): 0.162
- Ratio, ADAS 5-19 to CN, Female ([1]; serum level ratio, females, ADAS 5-19 vs CN): 0.847
- Ratio, ADAS 20-39 to 5-19, Female ([1]; serum level ratio, females, ADAS 20-39 vs ADAS 5-19): 0.917
- Ratio, ADAS 20-39 to CN, Female ([1]; serum level ratio, females, ADAS 20-39 vs CN): 0.776
- Ratio, ADAS 40-70 to 5-19, Female ([1]; serum level ratio, females, ADAS 40-70 vs ADAS 5-19): 0.858
- Ratio, ADAS 40-70 to 20-39, Female ([1]; serum level ratio, females, ADAS 40-70 vs ADAS 20-39): 0.935
- Ratio, ADAS 40-70 to CN, Female ([1]; serum level ratio, females, ADAS 40-70 vs CN): 0.726
- Ratio, 50-59 vs. 40-49, Female ([1]; serum level ratio, females, age 50-59 vs 40-49): 0.862
- Ratio, 60-69 vs. 40-49, Female ([1]; serum level ratio, females, age 60-69 vs 40-49): 0.815
- Ratio, 70+ vs. 40-49, Female ([1]; serum level ratio, females, age 70+ vs 40-49): 0.848
- Ratio, AD, All to CN, Female ([1]; serum level ratio, females, all AD vs cognitively normal): 0.778
- Ratio, Autopsy AD vs. Control, Female ([1]; serum level ratio, females, autopsy AD vs control): 0.742
- Ratio, 50-59 vs. 40-49, Male ([1]; serum level ratio, males, age 50-59 vs 40-49): 1.128
- Ratio, 60-69 vs. 40-49, Male ([1]; serum level ratio, males, age 60-69 vs 40-49): 1.147
- Ratio, 70+ vs. 40-49, Male ([1]; serum level ratio, males, age 70+ vs 40-49): 1.085
- Mean serum level, Age Ctl, 30-39, Female ([1]; serum, females, age 30-39): 0.196
- Mean serum level, Age Ctl, 40-49, Female ([1]; serum, females, age 40-49): 0.222
- Mean serum level, Age Ctl, 50-59, Female ([1]; serum, females, age 50-59): 0.191
- Mean serum level, Age Ctl, 60-69, Female ([1]; serum, females, age 60-69): 0.181
- Mean serum level, Age Ctl, 70+, Female ([1]; serum, females, age 70+): 0.188
- Mean serum level, Post Mortem SDAT, Female [1, 3]: 0.055
- Mean serum level, Post Mortem Ctl, Female [1, 4]: 0.114
- Mean serum level, Age Ctl, 30-39, Male ([1]; serum, males, age 30-39): 0.244
- Mean serum level, Age Ctl, 40-49, Male ([1]; serum, males, age 40-49): 0.186
- Mean serum level, Age Ctl, 50-59, Male ([1]; serum, males, age 50-59): 0.210
- Mean serum level, Age Ctl, 60-69, Male ([1]; serum, males, age 60-69): 0.213
- Mean serum level, Age Ctl, 70+, Male ([1]; serum, males, age 70+): 0.202
- Ratio of ethanolamine phospholipid ratios to M01 between cohorts ([2]; AD, All to CN, Male): 0.759
- Ratio of ethanolamine phospholipid ratios to M01 between cohorts ([2]; ADAS 5-19 to CN, Male): 0.792
- Ratio of ethanolamine phospholipid ratios to M01 between cohorts ([2]; ADAS 20-39 to CN, Male): 0.763
- Ratio of ethanolamine phospholipid ratios to M01 between cohorts ([2]; ADAS 40-70 to CN, Male): 0.679
- Average serum ethanolamine phospholipid ratio to M01, Mean ([2]; Cognitive Normal, Male, serum): 1.843
- Average serum ethanolamine phospholipid ratio to M01, Mean ([2]; SDAT, ADAS 5-19, Male, serum): 1.460
- Average serum ethanolamine phospholipid ratio to M01, Mean ([2]; SDAT, ADAS 20-39, Male, serum): 1.406
- Average serum ethanolamine phospholipid ratio to M01, Mean ([2]; SDAT, ADAS 40-70, Male, serum): 1.252
- Average serum ethanolamine phospholipid ratio to M01, Mean ([2]; SDAT_all, Male, serum): 1.399
- Ethanolamine Phospholipid Ratio to M01, Mean, Age Ctl, 30-39, Female ([2]; human serum, females aged 30-39): 1.979
- Ethanolamine Phospholipid Ratio to M01, Mean, Age Ctl, 40-49, Female ([2]; human serum, females aged 40-49): 2.044
- Ethanolamine Phospholipid Ratio to M01, Mean, Age Ctl, 50-59, Female ([2]; human serum, females aged 50-59): 1.952
- Ratio of Ethanolamine Phospholipid Ratio to M01, 50-59 vs. 40-49, Female ([2]; human serum, females aged 50-59 vs. females aged 40-49): 0.955
- Ethanolamine Phospholipid Ratio to M01, Mean, Age Ctl, 60-69, Female ([2]; human serum, females aged 60-69): 1.534
- Ratio of Ethanolamine Phospholipid Ratio to M01, 60-69 vs. 40-49, Female ([2]; human serum, females aged 60-69 vs. females aged 40-49): 0.751
- Ethanolamine Phospholipid Ratio to M01, Mean, Age Ctl, 70+_Female ([2]; human serum, females aged 70+): 1.564
- Ratio of Ethanolamine Phospholipid Ratio to M01, 70+ vs. 40-49, Female ([2]; human serum, females aged 70+ vs. females aged 40-49): 0.765
- Ratio of Ethanolamine Phospholipid Ratio to M01, 50-59 vs. 40-49, Male ([2]; human serum, males aged 50-59 vs. males aged 40-49): 1.124
- Ratio of Ethanolamine Phospholipid Ratio to M01, 60-69 vs. 40-49, Male ([2]; human serum, males aged 60-69 vs. males aged 40-49): 0.963
- Ratio of Ethanolamine Phospholipid Ratio to M01, 70+ vs. 40-49, Male ([2]; human serum, males aged 70+ vs. males aged 40-49): 0.898
- Ratio of ethanolamine phospholipid ratio to M01, ADAS 5-19 to CN, Female ([2]; serum, females, ADAS 5-19 vs cognitive normal): 0.932
- Ratio of ethanolamine phospholipid ratio to M01, ADAS 20-39 to 5-19, Female ([2]; serum, females, ADAS 20-39 vs ADAS 5-19): 0.883
- Ratio of ethanolamine phospholipid ratio to M01, ADAS 20-39 to CN, Female ([2]; serum, females, ADAS 20-39 vs cognitive normal): 0.823
- Ratio of ethanolamine phospholipid ratio to M01, ADAS 40-70 to 5-19, Female ([2]; serum, females, ADAS 40-70 vs ADAS 5-19): 0.790
- Ratio of ethanolamine phospholipid ratio to M01, ADAS 40-70 to 20-39, Female ([2]; serum, females, ADAS 40-70 vs ADAS 20-39): 0.895
- Ratio of ethanolamine phospholipid ratio to M01, ADAS 40-70 to CN, Female ([2]; serum, females, ADAS 40-70 vs cognitive normal): 0.736
- Ethanolamine phospholipid ratio to M01, Mean, SDAT, ADAS 5-19, Female ([2]; serum, females, SDAT ADAS 5-19): 1.568
- Ethanolamine phospholipid ratio to M01, Mean, SDAT, ADAS 20-39, Female ([2]; serum, females, SDAT ADAS 20-39): 1.384
- Ethanolamine phospholipid ratio to M01, Mean, SDAT, ADAS 40-70, Female ([2]; serum, females, SDAT ADAS 40-70): 1.239
- Ratio of ethanolamine phospholipid ratio to M01, AD, All to CN, Female ([2]; serum, females, all AD vs cognitive normal): 0.823
- Ethanolamine phospholipid ratio to M01, Mean, SDAT_all Female ([2]; serum, females, all SDAT): 1.384
- Ratio of ethanolamine phospholipid ratio to M01, Autopsy AD vs. Control, Female ([2]; serum, females, autopsy AD vs post mortem control): 0.957
- Ethanolamine phospholipid ratio to M01, Mean, Cognitive Normal, Female ([2]; serum, females, cognitive normal): 1.682
- Ethanolamine phospholipid ratio to M01, Mean, Post Mortem SDAT Female [2, 3]: 0.699
- Ethanolamine phospholipid ratio to M01, Mean, Post Mortem Ctl, Female [2, 4]: 0.731
- Ratio of ethanolamine phospholipid ratio to M01, ADAS 20-39 to 5-19, Male ([2]; serum, males, SDAT ADAS 20-39 vs ADAS 5-19): 0.964
- Ratio of ethanolamine phospholipid ratio to M01, ADAS 40-70 to 5-19, Male ([2]; serum, males, SDAT ADAS 40-70 vs ADAS 5-19): 0.858
- Ratio of ethanolamine phospholipid ratio to M01, ADAS 40-70 to 20-39, Male ([2]; serum, males, SDAT ADAS 40-70 vs ADAS 20-39): 0.890
- Ethanolamine phospholipid ratio to M01, Mean, Age Ctl, 30-39, Male ([2]; serum, males, age control 30-39): 2.068
- Ethanolamine phospholipid ratio to M01, Mean, Age Ctl, 40-49, Male ([2]; serum, males, age control 40-49): 1.728
- Ethanolamine phospholipid ratio to M01, Mean, Age Ctl, 50-59, Male ([2]; serum, males, age control 50-59): 1.942
- Ethanolamine phospholipid ratio to M01, Mean, Age Ctl, 60-69, Male ([2]; serum, males, age control 60-69): 1.664
- Ethanolamine phospholipid ratio to M01, Mean, Age Ctl, 70+_Male ([2]; serum, males, age control 70+): 1.552
- Ethanolamine phospholipid ratio to M01, Mean, Post Mortem SDAT Male ([2]; serum, males, post mortem SDAT): 0.616
- Ratio of ethanolamine phospholipid ratio to M01, SDAT vs Control (post mortem, males) ([2]; serum, males, post mortem SDAT vs post mortem control): 0.753
- Ethanolamine phospholipid ratio to M01, Mean, Post Mortem Ctl, Male ([2]; serum, males, post mortem control): 0.819
